From US20040136985A1, “Methods of modifying behavior of CD9-expressing cells” (priority 2002, published 2004)
Results are given in words; binding and its absence hold for the method and conditions named. Some entries that bind do so weakly or less than the wild type.

The chains behind the UniProt entries cited, without tags or fusion partners. Where a name states a change or a piece, a line headed by the entry shows the natural chain unless it says otherwise. A line that says so, or that is headed by a name, gives the form on record, which may keep a tag or linker.
human plasma fibronectin (P02751, form named): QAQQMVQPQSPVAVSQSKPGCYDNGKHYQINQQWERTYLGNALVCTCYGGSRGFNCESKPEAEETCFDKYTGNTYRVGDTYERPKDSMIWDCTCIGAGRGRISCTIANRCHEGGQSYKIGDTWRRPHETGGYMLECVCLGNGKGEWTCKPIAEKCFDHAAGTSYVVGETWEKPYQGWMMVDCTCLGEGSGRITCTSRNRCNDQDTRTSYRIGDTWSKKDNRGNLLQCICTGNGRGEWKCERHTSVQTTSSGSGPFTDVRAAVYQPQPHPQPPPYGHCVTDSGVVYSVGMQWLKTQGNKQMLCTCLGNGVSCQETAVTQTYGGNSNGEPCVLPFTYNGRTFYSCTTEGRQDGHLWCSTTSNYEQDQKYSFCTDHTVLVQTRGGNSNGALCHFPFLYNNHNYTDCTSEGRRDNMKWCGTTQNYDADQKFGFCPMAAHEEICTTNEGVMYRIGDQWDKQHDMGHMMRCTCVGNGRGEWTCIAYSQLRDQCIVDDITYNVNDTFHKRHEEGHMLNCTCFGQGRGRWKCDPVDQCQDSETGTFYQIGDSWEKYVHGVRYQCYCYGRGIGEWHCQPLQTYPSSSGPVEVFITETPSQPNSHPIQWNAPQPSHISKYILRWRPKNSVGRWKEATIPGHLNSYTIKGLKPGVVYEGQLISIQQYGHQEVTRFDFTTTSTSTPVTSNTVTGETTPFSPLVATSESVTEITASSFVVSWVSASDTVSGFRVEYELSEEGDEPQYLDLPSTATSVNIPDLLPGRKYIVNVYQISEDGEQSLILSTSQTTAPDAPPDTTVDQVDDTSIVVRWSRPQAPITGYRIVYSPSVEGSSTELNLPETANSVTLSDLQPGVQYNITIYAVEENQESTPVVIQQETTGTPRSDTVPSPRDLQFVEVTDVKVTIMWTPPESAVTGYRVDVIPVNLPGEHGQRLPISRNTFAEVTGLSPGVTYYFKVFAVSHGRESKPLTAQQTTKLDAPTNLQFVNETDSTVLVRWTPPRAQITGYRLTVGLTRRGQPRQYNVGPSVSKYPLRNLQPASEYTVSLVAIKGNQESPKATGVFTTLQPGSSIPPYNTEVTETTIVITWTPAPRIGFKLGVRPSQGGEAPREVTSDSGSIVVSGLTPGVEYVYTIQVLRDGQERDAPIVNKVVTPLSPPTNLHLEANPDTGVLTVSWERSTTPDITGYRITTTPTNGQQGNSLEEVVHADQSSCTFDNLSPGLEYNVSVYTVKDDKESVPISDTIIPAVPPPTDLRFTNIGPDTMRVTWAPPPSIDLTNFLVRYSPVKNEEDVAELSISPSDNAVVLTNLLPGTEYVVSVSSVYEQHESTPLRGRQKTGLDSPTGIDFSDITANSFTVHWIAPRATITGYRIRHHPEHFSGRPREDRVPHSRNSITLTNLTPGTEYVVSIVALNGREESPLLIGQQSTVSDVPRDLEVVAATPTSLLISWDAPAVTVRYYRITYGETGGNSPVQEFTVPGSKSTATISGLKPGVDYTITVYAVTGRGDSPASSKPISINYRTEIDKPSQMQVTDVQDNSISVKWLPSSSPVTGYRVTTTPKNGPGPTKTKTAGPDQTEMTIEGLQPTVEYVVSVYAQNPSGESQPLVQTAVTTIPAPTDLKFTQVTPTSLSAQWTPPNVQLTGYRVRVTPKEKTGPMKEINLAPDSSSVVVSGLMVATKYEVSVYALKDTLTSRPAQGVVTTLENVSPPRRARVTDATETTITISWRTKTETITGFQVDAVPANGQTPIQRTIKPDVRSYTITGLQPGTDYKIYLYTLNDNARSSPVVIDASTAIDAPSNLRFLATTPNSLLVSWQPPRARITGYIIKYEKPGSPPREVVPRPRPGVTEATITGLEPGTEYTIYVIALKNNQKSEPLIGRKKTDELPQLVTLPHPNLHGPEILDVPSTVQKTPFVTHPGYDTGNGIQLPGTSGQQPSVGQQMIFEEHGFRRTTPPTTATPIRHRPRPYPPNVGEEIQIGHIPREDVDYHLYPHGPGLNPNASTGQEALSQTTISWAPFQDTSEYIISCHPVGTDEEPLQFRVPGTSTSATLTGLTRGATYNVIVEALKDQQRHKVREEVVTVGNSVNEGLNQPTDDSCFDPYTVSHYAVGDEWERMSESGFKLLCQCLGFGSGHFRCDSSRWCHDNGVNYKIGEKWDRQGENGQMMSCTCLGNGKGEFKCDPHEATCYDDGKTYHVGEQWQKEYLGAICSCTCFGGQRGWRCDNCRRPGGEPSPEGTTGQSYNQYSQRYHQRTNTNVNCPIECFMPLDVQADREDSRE

Experiments:
[1] = target: human plasma fibronectin (human) (UniProt P02751); experiment: competition ELISA, FN on immobilized CD9
[2] = target: human plasma fibronectin (human) (UniProt P02751); experiment: competition ELISA, peptide 40 µM in solution against FN binding to immobilized CD9
[3] = target: human plasma fibronectin (human) (UniProt P02751); experiment: competition ELISA, peptide 6 titrated 0-160 µM against FN binding to immobilized CD9

Measured: binding

B1: peptide 6 (peptide)
peptide: PKKDVLETFTVKSCPDAIKEVFDNK
binds: all assays above
